For experiment [1], the system named is Ileum. Description: Vasorelaxant activity in K+-depolarized guinea pig ileum longitudinal smooth muscle assessed as inhibition of calcium-induced contraction. To be noted: Cavia porcellus. The class given is functional, tissue-based.
A short description of experiment [2]: Negative inotropic activity in guinea pig left atrium assessed as decrease in atrial tension relative to control. The class given is functional, tissue-based. To be noted: Cavia porcellus, Cardiac atrium. Put shortly:
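Negative inotropic potency in guinea pig left atrium. EC50 is calculated from log concentration-response curves by probit analysis (Litchfield and Wilcoxon), n = 6-8.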

pEC50, pIC50: −log10 of the molar value.

`CC(C)NC[C@@H](O)COc1cccc2ccccc12` [DEXPROPRANOLOL]: the pIC50 in experiment [1] is 4.57. The pEC50 in experiment [2] was 5.81.
